{"source": "PubChem BioAssay AID1259331 (Drosophila RNAi Screening Center, 2017)", "purpose": "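Genes whose knock-down changes cell survival under toxic zinc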 (primary screen)", "cell system": "Drosophila S2R+ cells", "knock-down reagent": "long dsRNA against Drosophila genes", "time to read-out": "5 days (4 days knock-down, then 1 day zinc)", "conditions": "zinc chloride at 15 mM final level for 1 day", "read-out": "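Total cellular ATP measured by luciferase luminescence as a viability proxy, turned into Z scores from three plate copies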", "reading the numbers": "mean Z score: higher = more ATP than other wells, better survival under zinc; ATP luminescence: higher = more ATP, more viable cells", "hit rule": "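a reagent is called a hit when its Z score is above 1.5 or below -1.5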", "meaning of the calls": "active = hit, ATP up or down; inactive = not a hit", "note": "The whole screen tested about 3,100 reagents; below is a random part of them. 126 of all reagents (4.1%) count as active. 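Calls are per reagent; zinc was so toxic that few knock-downs lowered ATP further, so most hits raise ATP.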 The raw values are shown without normalisation. The numbers tell different reagents against one gene apart. Not stated in the record: the amount of reagent."}
{"predicted target": "CG32988", "reagent": 1, "mean Z score": -1.05, "ATP luminescence, replicate 1": 48509, "ATP luminescence, replicate 2": 45028, "Call": "inactive"}
{"predicted target": "Ctr1C", "reagent": 1, "mean Z score": 0.0254, "ATP luminescence, replicate 1": 63770, "ATP luminescence, replicate 2": 69230, "Call": "inactive"}
{"predicted target": "Ctr1C", "reagent": 2, "mean Z score": -0.417, "ATP luminescence, replicate 1": 40553, "ATP luminescence, replicate 2": 46708, "Call": "inactive"}
{"predicted target": "PGRP-SD", "reagent": 1, "mean Z score": -0.648, "ATP luminescence, replicate 1": 64919, "ATP luminescence, replicate 2": 47411, "Call": "inactive"}
{"predicted target": "KCNQ", "reagent": 1, "mean Z score": -0.372, "ATP luminescence, replicate 1": 80818, "ATP luminescence, replicate 2": 66171, "Call": "inactive"}
{"predicted target": "KCNQ", "reagent": 2, "mean Z score": 2.29, "ATP luminescence, replicate 1": 92929, "ATP luminescence, replicate 2": 85484, "Call": "active"}
{"predicted target": "slif", "reagent": 1, "mean Z score": -0.404, "ATP luminescence, replicate 1": 53756, "ATP luminescence, replicate 2": 52007, "Call": "inactive"}
{"predicted target": "slif", "reagent": 2, "mean Z score": -0.266, "ATP luminescence, replicate 1": 50892, "ATP luminescence, replicate 2": 54143, "Call": "inactive"}
{"predicted target": "CG18635", "reagent": 1, "mean Z score": -0.295, "ATP luminescence, replicate 1": 45165, "ATP luminescence, replicate 2": 38102, "Call": "inactive"}
{"predicted target": "CG18635", "reagent": 2, "mean Z score": -0.393, "ATP luminescence, replicate 1": 51149, "ATP luminescence, replicate 2": 60718, "Call": "inactive"}
{"predicted target": "mthl7", "reagent": 1, "mean Z score": 0.0174, "ATP luminescence, replicate 1": 77388, "ATP luminescence, replicate 2": 64778, "Call": "inactive"}
{"predicted target": "mthl7", "reagent": 2, "mean Z score": 0.286, "ATP luminescence, replicate 1": 57082, "ATP luminescence, replicate 2": 65297, "Call": "inactive"}
{"predicted target": "Gr22f", "reagent": 1, "mean Z score": -0.412, "ATP luminescence, replicate 1": 38660, "ATP luminescence, replicate 2": 36165, "Call": "inactive"}
{"predicted target": "Gr22f", "reagent": 2, "mean Z score": 0.151, "ATP luminescence, replicate 1": 62665, "ATP luminescence, replicate 2": 58248, "Call": "inactive"}
{"predicted target": "ND-MWFE", "reagent": 1, "mean Z score": 0.442, "ATP luminescence, replicate 1": 46505, "ATP luminescence, replicate 2": 49023, "Call": "inactive"}
{"predicted target": "Ent3", "reagent": 1, "mean Z score": -0.321, "ATP luminescence, replicate 1": 26256, "ATP luminescence, replicate 2": 32427, "Call": "inactive"}
{"predicted target": "Ent3", "reagent": 2, "mean Z score": -0.0436, "ATP luminescence, replicate 1": 42559, "ATP luminescence, replicate 2": 51580, "Call": "inactive"}
{"predicted target": "Or94a", "reagent": 1, "mean Z score": -0.0772, "ATP luminescence, replicate 1": 38736, "ATP luminescence, replicate 2": 58077, "Call": "inactive"}
{"predicted target": "Ir68a", "reagent": 1, "mean Z score": -0.542, "ATP luminescence, replicate 1": 71333, "ATP luminescence, replicate 2": 59929, "Call": "inactive"}
{"predicted target": "Ptp99A", "reagent": 1, "mean Z score": 0.342, "ATP luminescence, replicate 1": 71865, "ATP luminescence, replicate 2": 71574, "Call": "inactive"}
{"predicted target": "Ptp99A", "reagent": 2, "mean Z score": -0.131, "ATP luminescence, replicate 1": 40468, "ATP luminescence, replicate 2": 41839, "Call": "inactive"}
{"predicted target": "Ptp99A", "reagent": 3, "mean Z score": -0.699, "ATP luminescence, replicate 1": 41102, "ATP luminescence, replicate 2": 43725, "Call": "inactive"}
{"predicted target": "Ptp99A", "reagent": 4, "mean Z score": -0.0371, "ATP luminescence, replicate 1": 46194, "ATP luminescence, replicate 2": 46760, "Call": "inactive"}
{"predicted target": "Ptp99A", "reagent": 5, "mean Z score": -0.298, "ATP luminescence, replicate 1": 46674, "ATP luminescence, replicate 2": 43211, "Call": "inactive"}
{"predicted target": "CG13426", "reagent": 1, "mean Z score": -0.385, "ATP luminescence, replicate 1": 62930, "ATP luminescence, replicate 2": 70374, "Call": "inactive"}
{"predicted target": "CG6006", "reagent": 1, "mean Z score": -0.494, "ATP luminescence, replicate 1": 36079, "ATP luminescence, replicate 2": 52775, "Call": "inactive"}
{"predicted target": "CG6006", "reagent": 2, "mean Z score": 0.507, "ATP luminescence, replicate 1": 49449, "ATP luminescence, replicate 2": 51424, "Call": "inactive"}
{"predicted target": "Ir64a", "reagent": 1, "mean Z score": -0.0297, "ATP luminescence, replicate 1": 76663, "ATP luminescence, replicate 2": 59946, "Call": "inactive"}
{"predicted target": "Ir64a", "reagent": 2, "mean Z score": 0.16, "ATP luminescence, replicate 1": 61279, "ATP luminescence, replicate 2": 63375, "Call": "inactive"}
{"predicted target": "CG33958", "reagent": 1, "mean Z score": -0.17, "ATP luminescence, replicate 1": 40742, "ATP luminescence, replicate 2": 44202, "Call": "inactive"}
{"predicted target": "CG33958", "reagent": 2, "mean Z score": -0.691, "ATP luminescence, replicate 1": 56482, "ATP luminescence, replicate 2": 61164, "Call": "inactive"}
{"predicted target": "CG33958", "reagent": 3, "mean Z score": -0.0978, "ATP luminescence, replicate 1": 58025, "ATP luminescence, replicate 2": 61781, "Call": "inactive"}
